Results: PubChem BioAssay AID2685 (National Center for Advancing Translational Sciences (NCATS), 2010)
The list shows a part of the results. The main result of the screen is listed elsewhere. These columns were measured beside it and carry no call. Compounds called inactive in the main read-out are mostly missing here. Words in brackets tell the shape of the fitted curve; partial curves, single points and poor fits give uncertain potencies.

Assay: qHTS Assay for Lipid Storage Modulators in Drosophila S3 Cells;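 for cell number change: cells counted by Cell Tracker Red CMTPX staining in the red channel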
Details: BODIPY lipid droplet fluorescence, 18-24 h; for cell number change: measured here: cell count max response, cells fed with added oleic acid
Summary of the method: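 Laser-scanning cytometry quantifies lipid droplet accumulation (500–530 nm total intensity; droplet/cell object ratio) in oleic acid-fed (400 uM added) Drosophila S3 cells treated with a concentration series. 20 uM Triacsin C defined 100% inhibition.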

[1] = measured here: lipid fluorescence (Fed channel) AC50, cells fed with added oleic acid
[2] = measured here: cell number channel AC50, cells fed with added oleic acid

| SMILES | cell number change | AC50 [1] | AC50 [2] |
| --- | --- | --- | --- |
| C#CCNC(=O)c1cc2sccc2n1C | 0.959% | 0.00461 µM [falling, full curve, poor fit] | – |
| CC(=O)Nc1ccc(S(=O)(=O)Nc2cccc3[nH]ncc23)cc1 | -53.4% | 29.1 µM [falling, single point] | 14.6 µM [falling, partial curve] |
| CCN(CC)S(=O)(=O)c1cccc(-c2nnc(SC(C)C(N)=O)n2CCc2ccccc2)c1 (stereo not given) | – | – | 3.66 µM [rising, single point] |
| CN(C(=O)COC(=O)COc1ccccc1F)C1CCS(=O)(=O)C1 (stereo not given) | 27.8% | 29.1 µM [rising, single point] | – |
| COc1ccc(O)c(CN2CCN(C/C=C/c3ccccc3)CC2)c1 | 13.7% | 0.13 µM [falling, partial curve, poor fit] | – |
| COCCN1C(=O)N(c2ccccc2)C(=O)C1CC(=O)Nc1cc(OC)cc(OC)c1 (stereo not given) | -3.81% | 29.1 µM [rising, single point] | – |
| CN(C)S(=O)(=O)c1ccc(C(=O)N2CCN(S(=O)(=O)c3cccs3)CC2)cc1 | 75.7% | 0.146 µM [falling, full curve, poor fit] | – |
| Cc1cc(C)cc(N(CC(=O)NCc2ccccc2Cl)S(=O)(=O)c2c(C)[nH]c(=O)[nH]c2=O)c1 | -56.8% | 7.31 µM [falling, partial curve, poor fit] | 10.3 µM [falling, partial curve] |
| COc1cccc(COc2ccc(N(C)S(=O)(=O)c3ccccc3)cc2)c1 | -8.57% | 6.51 µM [rising, single point] | – |
| O=C(Nc1ccc(Cl)cc1)OCc1cn(-c2ccc(Cl)cc2)nn1 | -16.1% | 1.64 µM [falling, partial curve] | – |
| CC(C)c1cc(C(N)=O)c(NC(=O)c2cccc(COc3ccc(Cl)cc3)c2)s1 | -22.1% | – | 2.59 µM [rising, single point] |
| CCOC(=O)C1C(=O)C=C(N2CCOCC2)CC1c1cccc(OC)c1 (stereo not given) | -17.5% | 0.231 µM [falling, full curve, poor fit] | – |
| O=C(Oc1ccc(-n2cnnn2)cc1)c1ccccc1 | -25% | 29.1 µM [falling, partial curve] | – |
| NC(=O)C1CCN(C(=O)c2ccc3ccccc3c2)CC1 | -20.8% | – | – |
| CCOc1ccc(S(=O)(=O)c2c(C(=O)c3ccccc3)cnc3cc4c(cc23)OCCO4)cc1 | -17% | 0.651 µM [rising, single point] | – |
| CCCCCn1c(=S)[nH]c2ncccc2c1=O | 21.3% | 20.6 µM [falling, single point] | – |
| O=S(=O)(NCC1COc2ccccc2O1)c1ccc2ccccc2c1 (stereo not given) | -16.7% | – | 0.366 µM [falling, full curve, poor fit] |
| CC1CN(C(=O)C(C)Sc2nnnn2C)CC(C)O1 (stereo not given) | 12.7% | – | 2.06 µM [falling, partial curve] |

| SMILES | cell number change | AC50 [1] | AC50 [2] |
| --- | --- | --- | --- |
| CCOC(=O)c1c(NC(=O)CSc2nnc(-c3ccccc3C)n2C)sc(C(C)=O)c1C | -7.37% | 0.651 µM [rising, full curve] | 0.231 µM [rising, full curve, poor fit] |
| Cc1ccc(S(=O)(=O)Nc2ccccc2C(=O)OC(C)C(=O)Nc2ccc3ccccc3c2)cc1[N+](=O)[O-] (stereo not given) | -1.06% | 25.9 µM [rising, partial curve] | – |
| O=C(CSc1nc2ccccc2nc1N1CCCC1)Nc1ccc(Cl)cc1 | 6.92% | 29.1 µM [falling, single point] | – |
| CCOn1c(=O)c(-c2ccc(F)cc2)[n+]([O-])c2ccccc21 | 44.4% | – | 0.651 µM [rising, full curve, poor fit] |
| O=C(O)c1ccc(-n2nncc2-c2ccco2)cc1 | 4.05% | – | – |
| CCCOc1ccc(C2NC(=S)NC(C)=C2C(=O)c2ccccc2)cc1OC (stereo not given) | -13% | 9.2 µM [falling, partial curve, poor fit] | – |
| Cc1cccc(/C=C2/S/C(=N/N=C3\CC4CCC3(C)C4(C)C)NC2=O)c1 (stereo not given) | -70% | 29.1 µM [falling, partial curve] | 29.1 µM [falling, single point] |
| COc1cccc(Cn2c(NCc3ccco3)nc3c2c(=O)n(C)c(=O)n3C)c1 | -117% | 8.2 µM [falling, partial curve] | 20.6 µM [falling, partial curve] |
| O=C(OCc1cc2ccccc2[nH]c1=O)C1CCCO1 (stereo not given) | 1.1% | 0.259 µM [falling, full curve, poor fit] | – |
| Cc1ccccc1-n1c(=O)/c(=C\c2ccco2)s/c1=C(/C#N)C(=O)Nc1ccccc1 | -13.1% | 7.31 µM [rising, full curve, poor fit] | – |
| Cc1ccc(N2C(=O)c3ccc(C(=O)O)cc3C2=O)cc1C | -42.3% | – | 29.1 µM [falling, single point] |
| COc1cc(C(=O)Nc2ccc(OCC(=O)O)cc2)cc(OC)c1OC | 6.11% | 1.16 µM [rising, full curve, poor fit] | – |
| CCOC(=O)c1cn(Cc2ccccc2)nn1 | 34.2% | 32.6 µM [rising, single point] | – |
| NC(=O)CC(NC(=O)Cc1cccc2ccccc12)c1ccc(N2CCN(c3ccc(F)cc3)CC2)c([N+](=O)[O-])c1 (stereo not given) | -21.8% | – | 0.651 µM [falling, full curve, poor fit] |
| Cc1cc(C)c2c(c1)cc(C)c1nnc(SCC(=O)Nc3ccc(S(=O)(=O)N4CCCCC4)cc3)n12 | -9.44% | 20.6 µM [falling, single point] | – |
| COc1ccccc1N1CCN(C2CCCN(C(=O)CN3CCCC3=O)C2)CC1 (stereo not given) | 1.16% | 29.1 µM [rising, single point] | – |
| COc1ccc([C@H]2CC(=O)C=C(c3ccc4c(c3)sc3ccccc34)C2)cc1 | -23.1% | 0.92 µM [falling, full curve] | – |
| CC(=O)Oc1c(Cl)cc(Cl)cc1/C=C/c1ccc2ccccc2n1 | -65% | 11.6 µM [falling, partial curve, poor fit] | 18.4 µM [falling, partial curve] |

A second format for some results above:
SMILES,cell number change,AC50 [1],AC50 [2]
Cc1cccc(/C=C2/S/C(=N/N=C3\CC4CCC3(C)C4(C)C)NC2=O)c1 (stereo not given),-70%,"29.1 µM [falling, partial curve]","29.1 µM [falling, single point]"
COc1cccc(Cn2c(NCc3ccco3)nc3c2c(=O)n(C)c(=O)n3C)c1,-117%,"8.2 µM [falling, partial curve]","20.6 µM [falling, partial curve]"
